Some of the results follow. Further columns of the screen follow, without active or inactive calls. The list favours compounds with an active or inconclusive main result. Words in brackets tell the shape of the fitted curve; partial curves, single points and poor fits give uncertain potencies.
Assay: qHTS Assay to Find Inhibitors of Chronic Active B-Cell Receptor Signaling
Conditions: ABC-DLBCL IkBa-CBG/CBR reporter, luminescence ratio (green luciferase fused to IkBa over red control in TMD8 lymphoma cells), 4 h
In short: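 TMD8 human ABC-DLBCL cells with doxycycline-inducible IκBα–green luciferase fusion and unfused red luciferase, in 0.5% FBS medium; compounds up to 46 uM, 4 h at 37C. Green/red luminescence ratio, filter-overlap corrected, fitted to concentration-response curves.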

[1] = measured here: CBR red luminescence, cell number
[2] = measured here: IkBa-CBG green luminescence

Compound	AC50 [1]	AC50 [2]
COc1ccc(NC(=O)CN2CCN(S(=O)(=O)N(C)C)CC2)cc1	35.5 µM [rising, single point]	–
Cn1cccc1Cc1nnc(SCC(=O)N2CCCC2)n1CCc1ccccc1	2.59 µM [rising, full curve]	–
COc1ccc(NC(=O)C2C3CCC(O3)C2C(=O)O)cc1OC (centres undefined)	35.5 µM [rising, single point]	–
COC(=O)[C@H](CCSC)NC(=O)Nc1ccc(C)c(C)c1	12.6 µM [rising, partial curve]	–
COc1ccc(/C=N\NC(=O)C2=NNC(=O)C2C)cc1 (centres undefined)	1 µM [falling, full curve]	–
O=S1(=O)c2ccc(Br)cc2N2CCC[C@@H]2CN1Cc1ccccc1	29.1 µM [rising, single point]	–
NC(=O)Nc1ccc(C(=O)OCC(=O)c2c[nH]c3ccccc23)cc1	7.31 µM [falling, partial curve]	–
O=C(COc1ccccc1)Nc1ccccc1F	12.6 µM [falling, partial curve]	–
CC1(C)Cc2c(sc(NC(=O)COc3cccc4ccccc34)c2C#N)C(C)(C)N1	7.94 µM [rising, partial curve, poor fit]	–
Cc1ccc(C(=O)Nc2cc(=O)n(C)c(=O)n2C)o1	–	29.1 µM [rising, partial curve, poor fit]
O=C(Nc1cc(Br)ccc1O)c1cc(-c2ccco2)on1	10 µM [falling, single point]	–
CC(=O)c1cc2c(C)c(C(=O)c3ccccc3)oc2cc1O	2.31 µM [rising, partial curve, poor fit]	–
Fc1ccccc1CSc1nnc(-c2cccs2)o1	5.01 µM [rising, partial curve]	–
CCSC1=N/C(=C\c2ccc(OC)cc2)C(=O)N1	6.51 µM [rising, partial curve, poor fit]	–
CCN(CC)S(=O)(=O)c1ccc(N2CCCC2)c(NC(=O)c2c(-c3ccccc3)noc2C)c1	20 µM [rising, partial curve, poor fit]	–
O=C(Nc1cc(Cl)cc(Cl)c1)N1CCCC1	25.1 µM [falling, single point]	–
N#CC1=C(SCC(=O)Nc2cccc3cccnc23)NC(=O)C(C#N)C12CCCCC2 (centres undefined)	29.1 µM [falling, single point]	–
O=C1NC2(CCCC2)C(=O)N1Cc1cc(=O)n2ccsc2n1	5.62 µM [falling, single point]	–
CC(=O)N1N=C(c2ccccc2O)OC1(C)CC(=O)Nc1ccccc1 (centres undefined)	11.6 µM [falling, partial curve]	–
CS(=O)(=O)c1nc(-c2ccco2)cc(C(F)(F)F)n1	8.91 µM [falling, partial curve]	17.8 µM [rising, single point]
O=C(Nc1ccccc1[N+](=O)[O-])C1=C(O)CCn2c1nc1ccccc12	0.13 µM [falling, full curve]	–

Compound	AC50 [1]	AC50 [2]
COc1ccc2nc(Cl)c(/C=N/Nc3ccccn3)cc2c1	25.1 µM [rising, single point]	–
C/C(CC(=O)Nc1cccc(C(F)(F)F)c1)=N\NC(=O)C1CCCCC1	22.4 µM [falling, single point]	–
COc1cc(OC)cc(C(=O)N[C@H](C(=O)Nc2nc3ccccc3[nH]2)C(C)C)c1	3.98 µM [rising, partial curve]	2.51 µM [falling, full curve]
CCCCC(=O)Nc1cc(Cl)ccc1C(=O)O	35.5 µM [falling, single point]	–
CCn1c(Cl)c(C=O)s/c1=N\S(=O)(=O)c1ccccc1	35.5 µM [falling, single point]	–
COc1ccc(NC(=O)Cn2c(=O)sc3ccccc32)cc1	4.11 µM [rising, single point]	29.1 µM [falling, partial curve, poor fit]
CC(=O)N1c2ccccc2CCc2ccc(N)cc21	0.891 µM [falling, full curve]	–
CC(C)CC(=O)Nc1ccc2c(c1)nc(CCN1CCCCC1)n2C	14.1 µM [falling, single point]	–
N/C(=N\OC(=O)c1ccc(Br)cc1)c1ccncc1	1 µM [rising, full curve]	–
C[C@@H]1CN(CCCn2c3ccccc3c3ccccc32)C[C@H](C)N1	12.6 µM [falling, partial curve, poor fit]	–
Cc1ccc(C)c(Cn2c(=O)n(-c3ccc(CC(=O)NCc4ccco4)cc3)c(=O)c3sccc32)c1	6.51 µM [rising, partial curve]	10.3 µM [falling, partial curve, poor fit]
CCOc1ccc(NC(=O)COC(=O)CSCC(=O)Nc2ccc(C)cc2C)cc1	1.64 µM [rising, partial curve, poor fit]	–
CC(C)NC(=O)NNC(=O)Cn1nnc(-c2cccc(Cl)c2Cl)n1	28.2 µM [falling, single point]	–
COc1ccc(N2CCN(CC(=O)c3c(C)n(C)c4ccc(OC)cc34)CC2)cc1	0.112 µM [rising, full curve, poor fit]	–
CN(c1cccc(Cl)c1)S(=O)(=O)c1cccc(C(=O)NC2=NCCS2)c1	14.1 µM [falling, single point]	–
O=C(N/N=C\c1ccccn1)C1COc2cc3ccccc3cc2O1 (centres undefined)	1.12 µM [falling, partial curve]	15.8 µM [falling, partial curve, poor fit]
COc1cccc(NC(=O)c2ccc(CN3CCc4ccccc4C3)cc2)c1	25.1 µM [falling, single point]	–
CCc1cccc(C)c1Nc1nc2ccccc2n2cnnc12	0.631 µM [rising, full curve]	–
O=C(CN1C(=O)c2ccccc2C1=O)c1ccc(F)cc1	8.91 µM [falling, partial curve, poor fit]	–
Nc1nc(SCc2nc3scc(-c4cccs4)c3c(=O)[nH]2)n[nH]1	18.4 µM [rising, single point]	–
c1ccc(CN=C2NN=C(c3ccccc3)CS2)cc1	12.6 µM [falling, partial curve, poor fit]	–

Random excerpt: three entries already listed, in no set order.
Compound	AC50 [1]	AC50 [2]
CCn1c(Cl)c(C=O)s/c1=N\S(=O)(=O)c1ccccc1	35.5 µM [falling, single point]	–
Nc1nc(SCc2nc3scc(-c4cccs4)c3c(=O)[nH]2)n[nH]1	18.4 µM [rising, single point]	–
Cc1ccc(C)c(Cn2c(=O)n(-c3ccc(CC(=O)NCc4ccco4)cc3)c(=O)c3sccc32)c1	6.51 µM [rising, partial curve]	10.3 µM [falling, partial curve, poor fit]

Further records

Compound	AC50 [1]	AC50 [2]
COc1c(CC=C(C)C)cc(C2CC(=O)c3c(O)cc(O)cc3O2)cc1CC=C(C)C (centres undefined)	35.5 µM [falling, single point]	35.5 µM [rising, partial curve, poor fit]
CC(C)CNC(=O)c1c(F)c(F)c(F)c(F)c1F	35.5 µM [falling, partial curve, poor fit]	–
CCOc1ccccc1C(=O)OCC(=O)Nc1ncc(C(F)(F)F)cc1Cl	0.58 µM [rising, full curve]	–
CCN1CC(CNC(=O)c2ccc3nc(Cc4cccc(Cl)c4)oc3c2)CC1=O (centres undefined)	35.5 µM [rising, single point]	–
COc1cc2cnc(-c3cccnc3)cc2cc1OC	29.1 µM [rising, single point]	–
CCOC(=O)c1c(C)[nH]c(C)c1C(=O)COC(=O)c1cccc(S(=O)(=O)NC)c1	1.78 µM [rising, partial curve, poor fit]	–
O=c1oc2c3c4c(cc2c2c1CCC2)OCCN4CCC3	8.91 µM [rising, partial curve, poor fit]	–
CC(C)Nc1nc(NC(C)C)nc(SCCOC(=O)Nc2ccc(Cl)cc2Cl)n1	32.6 µM [falling, single point]	–
COc1ccccc1NC(=O)CN(c1ccccc1F)S(C)(=O)=O	32.6 µM [rising, single point]	–
Cc1nc(C)c(CCNC(=O)c2ccc(C(F)(F)F)cc2)s1	0.731 µM [rising, full curve, poor fit]	–
CCN(CC)S(=O)(=O)c1ccc(N2CCOCC2)c(NS(=O)(=O)c2ccc(C)c(C)c2)c1	0.517 µM [rising, partial curve, poor fit]	–
COc1cccc(NC(=O)[C@H](NC(=O)[C@@H]2Cc3ccccc3CN2)c2ccccc2)c1	4.47 µM [falling, partial curve, poor fit]	–
COc1ccc(S(=O)(=O)N(C)C(C)CCc2ccco2)cc1 (centres undefined)	12.6 µM [rising, partial curve]	–
Oc1c(C(Nc2cccc(C(F)(F)F)c2)c2cccnc2)ccc2cccnc12 (centres undefined)	23.1 µM [falling, single point]	–
COc1cccc(N2CCN(CC(=O)C34CC5CC(CC(C5)C3)C4)CC2)c1	29.1 µM [rising, single point]	–
COc1ccc(-c2[nH]c(-c3ccccc3)nc2SCC(=O)NC2CCCC2)cc1	5.8 µM [rising, partial curve, poor fit]	–
Fc1ccc(Cn2nnc(-c3ccc(Cl)cc3)n2)cc1	6.31 µM [rising, partial curve]	–
O=C(NNC(=S)NC(=O)c1ccccc1)c1cccnc1	10 µM [falling, partial curve]	–
Cc1ccc(C(=O)COc2nc(C)cc(C)c2C#N)cc1	35.5 µM [rising, partial curve, poor fit]	–
CCN(CC)S(=O)(=O)c1ccc(C(=O)Nc2nnc(CSC)o2)cc1	20 µM [rising, single point]	–
O=C(NCCCN1CCOCC1)c1ccc(-n2nc(C(F)(F)F)cc2-c2cccs2)cc1	0.0058 µM [falling, full curve, poor fit]	–
